Assay results published in PMC13053990.
These are yes or no findings as the source states them, for the method shown. Binding seen in cells or lysates may run through a third protein. A result given as binding can be weak or reduced; the word gives no strength. Where a sequence is shown, tags or fusion partners need not be part of it.

B1: ref(2)P-HA (protein, UniProt P14199 1-599)
chain: MPEKLLKITYQGAGPQKKINAYLRMPSQNYTILRREIELYLFQERQLPKCDVRTFWIDADKDEIEIVNQNDYEIFLAKCESNMHVQVAPLAPVEEPKATKQEGSSANAEAPSVDDPSNFTIHDAVECDGCGLAPLIGFRYKCVQCSNYDLCQKCELAHKHPEHLMLRMPTNNGPGMVDAWFTGPGLGRRSGRRSRGHCPFQETNQADPAGEPARDSRRERRQARRHAGVLTQFVEMMTNLPLNTTTATAPAEPQKPKAAEQTESPPQAEPTVTAEKAAESEAKPTEPKKVNTDQSVPRTEDPVTTPRSTQPTTPVINLDNISQIVPPEYMSAGIEILNNFSEMFSKIIDTTEGGDSGIFAPSTTPSAENKKPEEQGQSSGQSGASSANQSAVPSAAPSANQSNVPSANQSATPSISGSIPDAQLETEPLNPKPSETTTETEQERRRSDSLDPEWQLIDNAYSANNSNLINLDTTNPTAAPQEPVRDFGQLGELLRQHMNEEARVEQASANTQTAQVDTVSTSTSTTSVTTNSVGTSPAAPDDKRTVPVYHTDESINKSIHAMMAMGFSNEGAWLTQLLESVQGNISAALDVMNVSQNRN
B2: PI3K92 E fused with a HA tag (protein, UniProt P91634 1-1088)
chain: MNMMDNRALAYVAHQPKYETPPEEAEPPCMRFSVNLWKNEMLNWVDLICLLPNGFLLELRVNPANTIQVIKVEMVNQAKQMPLGYVIKEACEYQVYGISTFNIEPYTDETKRLSEVQPYFGILSLGERTDTTSFSSDYELTKMVNGMIGTTFDHNRTHGSPEIDDFRLYMTQTCDNIELERSAYTWQQRLLYEHPLRLANSTKMPELIRERHPTRTFLIVVKNENDQSTFTLSVNEQDTPFSLTESTLQKMNRSQMKMNDRTSDYILKVSGRDEYLLGDYPLIQFLYIQEMLSDSAVPNVVLQSVYRLESYINHHNEQAMVTKRPLPKKRTVHLHKSISSLWDMGNYFQLTLHSISNVNFDKTRALKVGVHVCLYHGDKKLCAQRSTDSPNGNFDTFLFNDLVMDFDIQMRNLPRMTRLCIVIFEVTKMSRSKKSSNNKDIALKDVPYNKNPLAWVNTTIFDHKDILRTGRHTLYTWTYADDIQSVEVFHPLGTIEPNPRKEECALVDLTFLSSGTGTVRYPSEEVVLQYAADREQVNRLQRQLAGPEKPIKELKELMANYTGLDKIYEMVDQDRNAIWERRNDILRELPEELSILLHCVYWKERDDVADMWYLLKQWPLISIERSLELLDYAYPDPAVRRFAIRCLHFLKDEDLLLYLLQLVQAIKHESYLESDLVVFLLERALRNQRIGHYFFWHLRSEMQTPSMQTRFGLLLEVYLKGCKHHVAPLRKQLHVLEKLKQGSLIAKKGSKEKVKTMLQDFLRDQRNSAVFQNIQNPLNPSFRCSGVTPDRCKVMDSKMRPLWVVFENADVNASDVHIIFKNGDDLRQDMLTLQMLRVMDQLWKRDGMDFRMNIYNCISMEKSLGMIEVVRHAETIANIQKEKGMFSATSPFKKGSLLSWLKEHNKPADKLNKAINEFTLSCAGYCVATYVLGVADRHSDNIMVKRNGQLFHIDFGHILGHFKEKLGVRRERVPFVLTHDFVYVINKGFNDRESKEFCHFQELCERAFLVLRKHGCLILSLFSMMISTGLPELSSEKDLDYLRETLVLDYTEEKAREHFRAKFSEALANSWKTSLNWASHNFSKNNKQ

Key:
[1] = molecular target: EGFP-miPEP8 (Enhanced Green Fluorescent Protein-miPEP8) fused protein (Drosophila melanogaster); assay: co-IP; S2 cells co-transfected with EGFP, EGFP-miPEP8 or EGFP-miPEP8 SLiMmt and a HA-tagged candidate; GFP-Trap agarose beads; Western blot with anti-HA and anti-GFP
[2] = molecular target: EGFP-miPEP8 SLiMmt (mutated SLiM MOD_Plk1/MOD_Plk4) (Drosophila melanogaster); assay: as above

Binder	binding [1]	binding [2]
B1	binds	binds
B2	binds	–
